Laboratory results from US20110184188A1, “Insecticidal Benzenedicarboxamide Derivative” (priority 2008, published 2011).
Some entries share one result that the patent states for a list of compounds. For some of these results: At least one structure is not confirmed: it was looked up by name or label, or the drawing left a doubt.

What was measured:
Type in all cases: in vivo
[1] = tested on: Boophilus microplus; test: Test to Boophilus microplus (injection into engorged female adults); conditions: treated amount 20 μg/insect
[2] = tested on: Myzus persicae resistant to organophosphorus pesticide and carbamate agent; test: Test to Myzus persicae resistant to organophosphorus pesticide and carbamate agent (egg plant seedlings); conditions: effective ingredient concentration 100 ppm, seven days after spraying
Description: Test to Myzus persicae resistant to organophosphorus pesticide and carbamate agent
(§1) Solvent: dimethylformamide 3 parts by weight Emulsifier: polyoxyethylene alkyl phenyl ether 1 part by weight
(§2) In order to prepare preparations of suitable active compounds, 1 part by weight of each of the active compounds was blended with the above amount of the solvent containing the above amount of the emulsifier, and the resulting mixture was diluted to a prescribed concentration with water.
On egg plant seedlings planted in a plastic pot of a diameter of 6 cm, 30 bred Myzus persicae resistant to organophosphorus pesticide and carbamate agent per one seedling were inoculated. After 1 day elapsed since the inoculation, a sufficient amount of the solution diluted with water and having a prescribed concentration of the active compound was sprayed. After the spraying, the pot was allowed to stand in a greenhouse of 28° C. After seven days elapsed since the spraying, insect mortality was calculated. The test was carried out twice.

[3] = tested on: Spodoptera litura third instar larvae; test: Test to larva of Spodoptera litura (sweet potato leaf dip); conditions: active ingredient concentration 20 ppm, seven days later, 25° C.
Description: Test to Larva of Spodoptera litura
as §1, §2
Leaves of sweet potato were immersed in the tested liquid medication of a prescribed concentration diluted with water. After air drying of the liquid medication, the leaves were put into a petri dish of a diameter of 9 cm, and 10 Spodoptera litura third instar larvae were released in the petri dish, and the petri dish was placed in a constant temperature room of 25° C. Two days later and four days later, leaves of sweet potato were added. Seven days later, the number of dead insects was examined, and insect mortality was calculated.
In the present test, results of 2 petri dishes for each compound were averaged.

[4] = tested on: Lucilia cuprina; test: Test to Lucilia cuprina (larvae on horse minced meat); conditions: effective ingredient concentration 100 ppm
Description: (§3) Solvent: dimethylsulfoxide
(§4) In order to prepare preparations of suitable active compounds, 10 mg of each of the active compounds was dissolved into 0.5 ml of the above solvent, and the resulting mixture was diluted to a prescribed concentration with water.
About 20 to 30 larvae of Lucilia cuprina were put into the test tube in which 1 cm^3 of horse minced meat and 0.5 ml of the aqueous solution of the compound prepared in the above were put. After a fixed time passed, the mortality of the Lucilia cuprina was obtained. 100% mortality means that all the individuals were dead, and 0% mortality means that all the individuals were alive.

[5] = tested on: Musca domestica; test: Test to Musca domestica (adults, sugar sponge); conditions: effective ingredient concentration 100 ppm
Description: as §3, §4
As a preparative stage of the test, a fixed size of sponge was soaked in a mixture of sugar and the compound aqueous solution prepared in the above, and was placed in a test container. Ten adults of Musca domestica were put into the container, and the container was closed with a cap having ventilation holes. After a fixed time passed, a mortality rate of Musca domestica was acquired. 100% mortality means that all the individuals were dead, and 0% mortality means that all the individuals were alive.

[6] = tested on: Meloidogyne incognita; test: Test to Meloidogyne incognita (node formation on Lactuca sativa roots); conditions: active ingredient concentration 20 ppm
[7] = tested on: Myzus persicae; test: Test to Myzus persicae (Brassica pekinensis leaf disc spray); conditions: spraying amount 100 g/ha
Description: Solvent: acetone 78.0 parts by weight and dimethylformamide 1.5 parts by weight Emulsifier: alkyl aryl polyglycol ether 0.5 parts by weight
as §2
On a leaf disc of Brassica pekinensis, Myzus persicae including all growth stage was inoculated. The solution diluted with water and having a prescribed concentration of the active compound was sprayed by a spray gun. Insect mortality was calculated after prescribed days elapsed. 100% insect mortality means that all the individuals died, and 0% insect mortality means that all the individuals were alive.

Row | Structure (SMILES) | insecticide activity (mortality, eggs not hatching) [1] | pesticide effect, insect mortality [2] | insect mortality [3] | insecticide activity (mortality) [4] | insecticide activity (mortality) [5] | pesticide effect (node formation rate of root part) [6] | pesticide effect, insect mortality [7]
1 | C[C@@H](CS(C)(=O)=O)NC(=O)c1c(Cl)cccc1C(=O)Nc1ccc(Cn2nc(C(F)(F)F)nc2C(F)(F)F)cc1Cl [14-166] | ≥ 80% | 100% | 100% | ≥ 80% | ≥ 70% | – | –
2 | Cc1cc(Cn2nc(C(F)(F)F)nc2C(F)(F)F)ccc1NC(=O)c1cccc(S(C)(=O)=O)c1C(=O)N[C@@H](C)C[S+](C)[O-] (stereo partly shown) [14-374] | ≥ 80% | 100% | – | ≥ 80% | ≥ 70% | – | –
3 | Cc1nc(Cn2nc(C(F)(F)C(F)(F)F)cc2C(F)(F)F)ccc1NC(=O)c1cccc(Cl)c1C(=O)N[C@@H](C)C[S+](C)[O-] (stereo partly shown) [13-70] | ≥ 80% | – | – | ≥ 80% | ≥ 70% | ≥ 80% | ≥ 70%
4 | C[C@@H](C[S+](C)[O-])NC(=O)c1c(Cl)cccc1C(=O)Nc1ccc(Cn2nc(C(F)(F)F)nc2C(F)(F)F)cc1Cl (stereo partly shown) [14-165] | ≥ 80% | 100% | 100% | ≥ 80% | ≥ 70% | – | –
